Here are results for one molecule from article PMC8510601, “Discovery of benzamide-hydroxypyridinone hybrids as potent multi-targeting agents for the treatment of Alzheimer's disease” (Journal of Enzyme Inhibition and Medicinal Chemistry, 2021).

Series [1] can be described thus: in vitro. As to conditions: PAMPA. Background: In PAMPA a lipid-coated filter parts donor from acceptor wells.
The conditions of series [2]: PAMPA.

In series [1], `COc1cc2c(cc1OC)C(=O)C(CC1CCN(Cc3ccccc3)CC1)C2` (centres unmarked) [Donepezil] had a Papp of 10.4 ± 0.98 ×10⁻⁶ cm/s. For the same molecule, the “Prediction of CNS penetrability” value in series [2] is reported as “CNS + (key: CNS +: Pe (10^–6 cm/s) > 4.0, high BBB permeability; CNS ±: 2.0 < Pe (10^–6 cm/s) < 4.0, uncertain BBB permeability; CNS −: Pe (10^–6 cm/s) < 2.0, low BBB permeability)”.

The term Papp denotes the rate of passage across a membrane or cell layer, normalised by area and donor concentration. A high value points to ready permeation.
